Data from article PMC8563757.
These are yes or no findings as the source states them, for the method shown. In cells and extracts the contact can be indirect. Some entries that bind do so weakly or less than the wild type.

T1: NudCL2 (form in the experiment not told; Fig. S6c, d and Fig. S8) (UniProt Q9CQ48)
T1 sequence: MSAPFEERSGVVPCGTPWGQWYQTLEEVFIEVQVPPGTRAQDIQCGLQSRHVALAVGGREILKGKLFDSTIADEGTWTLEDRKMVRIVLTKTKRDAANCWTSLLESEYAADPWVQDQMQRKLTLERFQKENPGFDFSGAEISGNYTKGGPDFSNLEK

T2: Centriolar coiled-coil protein 110 (CP110), endogenous, MEF cells (mouse (endogenous in MEF)) (UniProt Q7TSH4)
T2 sequence: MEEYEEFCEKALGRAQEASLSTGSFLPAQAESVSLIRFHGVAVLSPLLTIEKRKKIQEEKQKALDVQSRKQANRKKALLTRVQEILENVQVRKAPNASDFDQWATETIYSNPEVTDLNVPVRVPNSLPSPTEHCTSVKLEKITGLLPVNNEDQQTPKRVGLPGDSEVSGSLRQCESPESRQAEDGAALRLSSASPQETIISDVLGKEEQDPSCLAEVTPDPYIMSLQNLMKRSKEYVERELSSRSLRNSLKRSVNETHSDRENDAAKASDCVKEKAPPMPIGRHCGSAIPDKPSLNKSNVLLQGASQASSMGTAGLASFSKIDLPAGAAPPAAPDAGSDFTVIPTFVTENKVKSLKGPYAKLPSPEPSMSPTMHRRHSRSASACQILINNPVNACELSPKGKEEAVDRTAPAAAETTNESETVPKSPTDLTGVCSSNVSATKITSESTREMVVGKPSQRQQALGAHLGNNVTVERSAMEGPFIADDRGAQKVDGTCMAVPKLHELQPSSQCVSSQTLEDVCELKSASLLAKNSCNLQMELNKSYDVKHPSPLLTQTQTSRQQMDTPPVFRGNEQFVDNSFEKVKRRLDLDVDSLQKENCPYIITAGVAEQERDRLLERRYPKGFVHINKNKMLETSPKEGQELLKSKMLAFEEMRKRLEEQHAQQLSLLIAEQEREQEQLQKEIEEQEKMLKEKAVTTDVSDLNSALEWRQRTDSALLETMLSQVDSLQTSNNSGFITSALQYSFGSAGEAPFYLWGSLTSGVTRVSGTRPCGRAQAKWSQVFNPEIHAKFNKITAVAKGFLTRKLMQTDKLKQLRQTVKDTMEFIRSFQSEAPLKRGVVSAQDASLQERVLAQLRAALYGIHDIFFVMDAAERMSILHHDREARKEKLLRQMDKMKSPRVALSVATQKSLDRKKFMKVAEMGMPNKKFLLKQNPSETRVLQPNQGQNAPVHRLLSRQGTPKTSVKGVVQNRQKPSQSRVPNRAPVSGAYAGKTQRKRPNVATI


Tests used:
[1] = target: T1, NudCL2 (form in the experiment not told; Fig. S6c, d and Fig. S8); assay: co-IP; co-IP of NudCL2 with CEP83, CEP89 or TTBK2; cells and antibodies in Fig. S8, not shown
[2] = target: T2, Centriolar coiled-coil protein 110 (CP110), endogenous, MEF cells (mouse (endogenous in MEF)); assay: co-IP; endogenous proteins, wild-type MEF cell lysates, antibodies at 4 °C overnight, Protein A/G Sepharose beads, western blotting

Row | binding [1] | binding [2] | Binder
1 | binds | – | centrosomal protein 89 (CEP89) (protein, UniProt Q9CZX2 1-791) MLLSFRRNRRSQFNHIIHGFLPAASIAPKPAVPRTPPPRSPNPSPERPRSALAAAILATTLTGQTVAIPQPRQRSRSESDASDIEKDSFIKPYATTSELRLRQSWQNEPRRTSLPSFEMLGYGEDEDAETQVSTSCRESESTWKDVGDGRDATYTVPHRDQVLPSQKLVRKDDAPQPDWLSDSSSSSSSSTPQHTQQKDVKHSVLNLEGEKVRLHEKPPPSPDVAGRIHQRYTEITKEKFAELKEETVHLYSANQALSCELSALRQAMKDLQLKLKLVEKDNRKLKETEKASCQEGVTPELLCLRKQSQDLVDENEGLKMIVHRLNVELSRYQTKFRPLSEEESSHIQGLPSKGPTPPWLVDIKYLSPLLLAYEDRMKEKDKLSTALEEEMKTFRLRVQEVVKENEALHQELTKRSPVTVEEWRQLQTQAELVLDENKLLIEQLEIQQAKARDTHQAHLQDVSKLTKQLVLLEAKTQGQEKQLVESTEQLESLQAKCTELKAQLDSKIAVDVHTSIVNELKSQLQKEEEKDSAEMEELMAKLTALQVQKKSLLLEKSSWATRNRALEAELERTRKANRRYQKRIDVLRKQVEKAMGKEMSAHQYLANLVGLAETVTKERDSLKYLAQCLESEKHGVLNKILKGNIRLGKLEERVKGYKKQAALKLGDIHHRLKEQQEDFAGKAAQYQKEVKHLHRMLQEKQEVLDEALQQKRNMEGELEMVLESTAKENRRMRSLLQATLERRSTQHVTAPPDTCLRRSSQGDLLIGHDFSYGDVQLLATTNRQSLGESMA
2 | binds | – | centrosomal protein 83 (CEP83) (protein, UniProt Q9D5R3 1-692) MDTFPSLFPPGGDSRLNPEPEFQNMLIDERVRCEHHKHNYQALKIEHKRLQEEYVKSQNELKRVLIEKQASQEKFQLLLEDLRGELVEKARDIEKMKLQVLTPQKLELVKAQLQQELEAPMRERFRTLDEEVERYRAEYNKLRYEYTFLKSEFEHQKEEFTRVSEEEKMKYKSEVARLEKDKEELHNQLLSVDPTRDSKRMEQLVREKTHLLQKLKSLEAEVAELRAEKENSGAQVENVQRIQVRQLAEMQATLRSLEAEKQSAKLQAERLEKELQSSNEQNTCLISKLHRADREISTLASEVKELKHANKLEITDIKLEAARAKSELERERNKIQSELDGLQSDNEILKSTVEHHKALLVEKDRELIRKVQAAKEEGYQKLMVLQDEKLELENRLSDLEKMKVERDVWRQSEKEQCEEKLRASQMAEEAARRELQSTRLKLQQQIVNTEKAEKEKLENSELKQQISHLQIQVTSLTQSENDLLNSNHMLKDMVERLKQECRNLRSQAEKAQLDVEKTLEEKQIQWLEEKHKLHERITDREEKYNQAKEKLQRAATAQKKRKSLHENKLKRLQEKVEVLEAKKEELETENQVLNRQNVPFEEYTRLQKRLKDIQRRHNEFRSLILVPNMPPTASISPANFQSAVTVPGAELSFPPHLQEEQHQRELSLLRKRLEELETTQRKQLEELGSPGE
3 | – | binds | NudC-like protein 2 (NudCL2), endogenous, MEF cells (protein, UniProt Q9CQ48 1-157) MSAPFEERSGVVPCGTPWGQWYQTLEEVFIEVQVPPGTRAQDIQCGLQSRHVALAVGGREILKGKLFDSTIADEGTWTLEDRKMVRIVLTKTKRDAANCWTSLLESEYAADPWVQDQMQRKLTLERFQKENPGFDFSGAEISGNYTKGGPDFSNLEK
4 | binds | – | Tau tubulin kinase 2 (TTBK2) (protein, UniProt Q3UVR3 1-1243) MSGGGEQPDILSVGILVKERWKVLRKIGGGGFGEIYDALDMLTRENVALKVESAQQPKQVLKMEVAVLKKLQGKDHVCRFIGCGRNDRFNYVVMQLQGRNLADLRRSQSRGTFTISTTLRLGKQILESIESIHSVGFLHRDIKPSNFAMGRFPSTCRKCFMLDFGLARQFTNSCGDVRPPRAVAGFRGTVRYASINAHRNREMGRHDDLWSLFYMLVEFVVGQLPWRKIKDKEQVGSIKERYDHRLMLKHLPPEFSTFLDHISSLDYFTKPDYQLLTSVFDNSIKTFGVIESDPFDWEKSGTDGSLTTTTTSATPQLHTRLTPAAIGIANATPIPGDLLRENTDEVFPDEQLSDGENGIPVGVSPDKLPGSLGHPRPQEKDVWEEMDINKNKIKLGICKAATEEENSHGQVNGILNAPSLGSPIRVRSEITQPDRDVPLVRKLRSIHSFELEKRLTLEPKPDTDKFLETCMEKMQKDSSAGKEPVPPALPHKPCVPVVTHTDHIWHYDDEYLPDASKPASANTPEQADGGGSNGFIAVNLSSCKQEVDSKEWVIVDKEQDLQDFRTNEVLGHKTTGSPSDEEPEVLQVLEGSPQDEKIQVGPWTDNHHLKKESSGVVLALSAECPATAASELYTDRLDLQAGAASQFITVTPTSPMEAQAEGPLTAITIPRPSVASTQSTSGSFHYGPQPEKKDLQPLEPTVELYSPRENFSGLVVTEGELASGGSRVDLGLQIDHTGHDMLPNMRDGDTSQDLGPKDPPDHNRLAVKEFEHLPGETEERSLLLGSENEDERLSKGQHCIEVSSPGELVTAERAQLAATEPLHVSETQNCSVLPNQDKTHEIMKLLAVGTSEISPQAIDPHAEGQIGQMAAMQKNKLFKDDGIQSESLPRQQGDLSAFLHQEGKREKVVPRNGELYHCVSENEHGPPTRKDMLRSSFVTRHSRIPVLAQEIDSTFESSSAISAKEKLLQKKAYQPEIVKLLVEKRQFKSFLGDLSSASDKLIEEKLAAVPVPFSEEEVFAPFSRLAADSHLSRSVEDSFLSPIISQARKSKIPRPVSWVSTDQINGSASPQFLPRPPPGKPPVRPGVEARLRRYKVLGSSNSDSDLFSRLAQILQNGSQKSRSTTQCKSPGSPHNPKTPPKSPVVPRRSPSASPRSSSLPRTSSSSPSRAGRPHHDQRSSSPHLGRSKSPPSHSGSSSSRRSCQQEHCKPSKNGPKGSGSLHHHSTSSKTPPGKSKPASKLSR
